Some results were stated once for a whole list of compounds, not compound by compound. Some compounds share one range, which may span the group rather than tell each member.
Tests used:
Assay in all cases: Herbicidal pre-emergence action
Type in all cases: in vivo
Details in all cases: 320 g/ha of a.i., about 3 weeks
Lolium multiflorum = test system: Lolium multiflorum
Alopecurus myosuroides = test system: Alopecurus myosuroides
Echinocloa crus-galli = test system: Echinocloa crus-galli
Setaria viridis = test system: Setaria viridis

Measured: herbicidal activity in percent

CCOC(=O)OC1=C(c2c(C)cc(C)cc2CC)C(=O)NC12CCC(F)(F)CC2 [Example I-1-c-1]
90-100%: Lolium multiflorum | Alopecurus myosuroides | Echinocloa crus-galli | Setaria viridis

CCc1cc(C)cc(C)c1C1=C(OC(=O)C(C)C)C2(CCC(F)(F)CC2)NC1=O [Example I-1-b-1]
90-100%: Lolium multiflorum | Alopecurus myosuroides | Echinocloa crus-galli | Setaria viridis

Cc1cc(OCC(F)(F)F)cc(C)c1C1=C(O)C2(CCC(F)(F)CC2)NC1=O [Example I-1-a-8]
90-100%: Lolium multiflorum | Alopecurus myosuroides | Echinocloa crus-galli | Setaria viridis
